Results: patent US20050272649A1, “Conjoint administration of morphogens and ACE inhibitors in treatment of chronic renal failure” (priority 2002, published 2005)

Tested on: streptozotocin diabetic Sprague-Dawley rats
Type: in vivo
Conditions: weeks 16-32, insulin-maintained
Description: A long-term streptozotocin model of diabetic nephropathy was used to test and compare the therapeutic actions of BMP-7 with those of Enalapril. The study design was a treatment protocol beginning at 16 weeks when glomerular hypertrophy and proteinuria were established. The effects of therapy with BMP-7 (10, 30, or 100 μg/kg iv, biw) were compared to a maximal dose of Enalapril (20 mg/kg) and to a vehicle control. […] The GFR of 32 week diabetic Enalapril treated rats was 0.58±0.06 (not significant compared to vehicle treated and sham injected rats 0.55±0.02).
Animals: Female Sprague-Dawley rats 10 weeks of age weighing 190-220 g were used. Animals were allowed free access to standard rat chow and to tap water. Diabetes mellitus was induced by a single tail-vein injection of Streptozotocin (STZ 62 mg/kg of body weight, Sigma chemical company, St. Louis, Mo.) dissolved in normal saline at day 0. The diabetic state was confirmed 72 hours later by the determination of blood glucose concentration>300 mg/dl. […] Tail blood glucose levels were measured twice a week with an Accu—Chek™ Advantage meter (Roche Diagnostic Corporation, Indianapolis, Ind.). […] Food and water intake were monitored daily.
Renal hypertrophy was well developed at 16 weeks prior to treatment with vehicle, BMP-7, or enalapril. […] Glomerular filtration rate (GFR), urine albumin excretion, kidney weight, glomerular area, mesangial matrix area, interstitial volume, monocyte and macrophage infiltration, thickness of glomerular basement membrane (GBM) and glomerulosclerosis were measured.
Renal Function: In all animals, glomerular filtration rate (GFR) was measured as the clearance of inulin. […]
After the completion of surgery, a bolus of 2 ml/kg of 3% inulin (Cypros Pharmaceutical Corp, W. Carlsbad, Calif.) and 0.2% p-aminohippurate (PAH) in normal saline was infused as a priming load, followed by a sustaining infusion of the same solution at the rate of 8 ml/h·kg. […] Plasma and urine were analyzed for inulin.
Urine volume was measured and urinary protein concentration was determined with a Bio-Rad protein assay. […]

B1: OP-1: osteogenic protein-1 (OP-1, also known as BMP-7), morphogen of the OP/BMP family; OP-1 used interchangeably with sBMP-7 (protein)
chain: STGSKQRSQNRSKTPKNQEALRMANVAENSSSDQRQACKKHELYVSFRDLGWQDWIIAPEGYAAYYCEGECAFPLNSYMNATNHAIVQTLVHFINPETVPKPCCAPTQLNAISVLYFDDSSNVILKKYRNMVVRACGCH
Blood sugar (BMP-7 10 μg/kg iv twice a week): 460.0 ± 5.5 mg/dL
Blood sugar (BMP-7 30 μg/kg iv twice a week): 455.8 ± 5.7 mg/dL
Blood sugar (BMP-7 100 μg/kg iv twice a week): 461.6 ± 5.5 mg/dL

Like-named read-outs stand apart in the source and are kept apart here.
